PubChem BioAssay AID1224826 | NIAID, 2016
Assay: 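Knock-downs that raise or lower Tnf reporter signal after endotoxin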 (primary screen). System: RAW264.7 G9 macrophages from mouse bearing reporters for p65 (GFP) and the Tnf promoter (mCherry). Knock-down reagent: siRNA pool against mouse genes, 100 nM. Duration: 16 h of LPS stimulation, after 2 days of siRNA transfection. Conditions: bacterial lipopolysaccharide (Salmonella minnesota R595), 10 ng/ml. Measurement: 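Nuclear mCherry signal of the Tnf promoter reporter measured by imaging after background removal, scaled to each plate median and turned into robust z-scores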. Direction: Tnf reporter robust z-score: higher = stronger Tnf promoter reporter signal after LPS. Hit rule: 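Called active when robust z-score is at most -1.3, matching the median of the Tlr4 knock-down control, or over 3; control wells and wells with under 50 cells never active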. Calls: active = Tnf reporter clearly lowered or raised; inactive = no clear change in Tnf reporter.
Here is a random part of about 17,000 deposited reagents. Over the whole deposit, about 1,110 (6.6%) got an active call. 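Active means lowered or raised reporter signal; replicate intensities are raw and not normalised per plate.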 Entries without a mark were called inactive. Not all columns of the deposit are shown.

gene symbol	PubChem SID	Tnf reporter robust z-score	fewer than 50 cells in well
Odf1	SID315468287	1.61	enough cells in well
Meis2	SID315467982	-0.02	enough cells in well
Tmem220	SID315481678	-0.57	enough cells in well
Mogat2	SID315479089	0.19	enough cells in well
Nr4a3	SID315468206	-0.28	enough cells in well
Mterf3	SID315472427	0.07	enough cells in well
Tceanc2	SID315472493	-1.03	enough cells in well
Tceanc2	SID315472494		fewer than 50 cells per well; well left out of calls
Orc3	SID315470854	1.39	enough cells in well
Prkcsh	SID315468692	0.83	enough cells in well
Stard8	SID315479318	1.38	enough cells in well
A630001G21Rik	SID315481209	0.45	enough cells in well
Pwp1	SID315476358	2.04	enough cells in well
Slc12a7	SID315469275	-0.07	enough cells in well
Rbbp7	SID315479837	0.68	enough cells in well
Ppil4	SID315473010	-0.73	enough cells in well
Foxq1	SID315467191	3.99 (active)	enough cells in well
Pias3	SID315478723	-0.3	enough cells in well
Or2j6	SID315480574	2.84	enough cells in well
Endod1	SID315474386		fewer than 50 cells per well; well left out of calls
Psen1	SID315468734	0.16	enough cells in well
Ocln	SID315468284	0.07	enough cells in well
H1f3	SID315467098	-0.36	enough cells in well
Mtap	SID315472707	0.06	enough cells in well
Elk1	SID315466484	-1.38 (active)	enough cells in well
Cbfa2t3	SID315465791	0.05	enough cells in well
Cldn7	SID315471100	-0.77	enough cells in well
Pten	SID315468767	0.22	enough cells in well
Pten	SID315481253	-1.2	enough cells in well
Or1x2	SID315468321	1.17	enough cells in well
Uqcrc2	SID315472770	0.49	enough cells in well
Cd200r2	SID315480945	-0.07	enough cells in well
Qki	SID315468841	-0.07	enough cells in well
Haghl	SID315473687	-0.02	enough cells in well
Fmo5	SID315466726	0.75	enough cells in well
Nup214	SID315478594		fewer than 50 cells per well; well left out of calls
Ifna13	SID315478779	0.25	enough cells in well

The list goes on; the last 5 above are carried over.
gene symbol	PubChem SID	Tnf reporter robust z-score	fewer than 50 cells in well
Qki	SID315468841	-0.07	enough cells in well
Haghl	SID315473687	-0.02	enough cells in well
Fmo5	SID315466726	0.75	enough cells in well
Nup214	SID315478594		fewer than 50 cells per well; well left out of calls
Ifna13	SID315478779	0.25	enough cells in well
Obp1a	SID315468282	-0.53	enough cells in well
Pced1a	SID315481104	-1.05	enough cells in well
Tnfrsf17	SID315469765	-1.26	enough cells in well
Hoxa3	SID315467252	-1.1	enough cells in well
4732427B05	SID315482011	-0.33	enough cells in well
Snapc2	SID315476321	-0.31	enough cells in well
Cop1	SID315470360	-0.24	enough cells in well
Zfp84	SID315474948	1.12	enough cells in well
Tmem164	SID315477601	1.15	enough cells in well
Ccl24	SID315471411	0.12	enough cells in well
Zfp945	SID315479474	-0.89	enough cells in well
Mmut	SID315468039	0.37	enough cells in well
Cd40	SID315469769	0.89	enough cells in well
Prap1	SID315469945		fewer than 50 cells per well; well left out of calls
Mkrn2	SID315472786	2.57	enough cells in well
Ugdh	SID315469927	1.75	enough cells in well
Pam16	SID315472451	1.7	enough cells in well
Ergic2	SID315473038	-0.09	enough cells in well
Hoxa9	SID315467257	-0.09	enough cells in well
Pdgfc	SID315471276	-0.1	enough cells in well
Sphkap	SID315475491		fewer than 50 cells per well; well left out of calls
Cyp2c50	SID315476581	0.34	enough cells in well
Nr4a1	SID315467233	-0.39	enough cells in well
Or4d6	SID315480326	0.07	enough cells in well
Wdr77	SID315474061		fewer than 50 cells per well; well left out of calls
Rmp64	SID315477749	-0.5	enough cells in well
Fgd1	SID315466658	0.38	enough cells in well
Ogfod3	SID315472270	2.46	enough cells in well
Ythdc1	SID315478889	1.21	enough cells in well
Msh4	SID315471335	0.29	enough cells in well
Zfp119b	SID315479486	0.58	enough cells in well
Tsg101	SID315469846	-0.92	enough cells in well
Ypel3	SID315472207	0.39	enough cells in well
Troap	SID315475605	0.55	enough cells in well
Nts	SID315473004	0.65	enough cells in well
Iars1	SID315476473	1.14	enough cells in well
Ackr3	SID315466022	0.75	enough cells in well
AI661453	SID315478380	-1.45 (active)	enough cells in well
